Measurements reported in PubChem BioAssay AID652243 (Drosophila RNAi Screening Center, 2013).

Screen: 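Fly genes required for human androgen receptor driven transcription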 (primary screen)
Cell system: Drosophila S2R+ cells
Knock-down reagent: long dsRNA against Drosophila genes
Timing: 72 h (48 h, then 24 h hormone)
Conditions: synthetic androgen R1881 at 10 nM for 24 h
Measurement: 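Per-well raw luminescence of the androgen-driven firefly reporter and of the Renilla control, two replicates each, without normalisation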
Direction: firefly reporter light: higher = more light from androgen-responsive reporter; Renilla control light: higher = more constitutive control signal (cell number, transfection)
Hit rule: 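Hit when the log firefly-to-Renilla ratio dropped or increased by a fixed fold versus the mean of GFP or LacZ controls across duplicate plates; lowering cut given as 1.5 and as 3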
Meaning of the calls: active = hit: reporter lowered or raised; inactive = no hit
The screen tested about 24,000 reagents; shown is an unselected part of those that have a named target and a result. Over the whole deposit, 246 (1%) got an active call. 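Plates not normalised; calls are printed but the firefly/Renilla ratio behind them is not deposited; fold cut for lowering reported inconsistently.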 Raw values vary from plate to plate and are shown uncorrected. A plus sign joins genes that one reagent is predicted to hit. The record does not give: the amount of reagent.

{"predicted target": "obst-A", "DRSC id": "DRSC20543", "firefly reporter light, replicate 1": 1.05e5, "firefly reporter light, replicate 2": 71029, "Renilla control light, replicate 1": 8.11e5, "Renilla control light, replicate 2": 6.89e5, "call": "inactive"}
{"predicted target": "Tcs6 + PIG-P", "DRSC id": "DRSC13742", "firefly reporter light, replicate 1": 21472, "firefly reporter light, replicate 2": 36025, "Renilla control light, replicate 1": 96486, "Renilla control light, replicate 2": 91087, "call": "inactive"}
{"predicted target": "Tcs6 + PIG-P", "DRSC id": "DRSC14893", "firefly reporter light, replicate 1": 4.10e5, "firefly reporter light, replicate 2": 2.63e5, "Renilla control light, replicate 1": 3.17e6, "Renilla control light, replicate 2": 2.16e6, "call": "inactive"}
{"predicted target": "PGRP-LF", "DRSC id": "DRSC28930", "firefly reporter light, replicate 1": 7.95e5, "firefly reporter light, replicate 2": 8.51e5, "Renilla control light, replicate 1": 7.98e5, "Renilla control light, replicate 2": 1.12e6, "call": "inactive"}
{"predicted target": "CG13744", "DRSC id": "DRSC06415", "firefly reporter light, replicate 1": 2.29e5, "firefly reporter light, replicate 2": 1.57e5, "Renilla control light, replicate 1": 1.33e6, "Renilla control light, replicate 2": 9.77e5, "call": "inactive"}
{"predicted target": "CG9813", "DRSC id": "DRSC16569", "firefly reporter light, replicate 1": 1.39e5, "firefly reporter light, replicate 2": 33956, "Renilla control light, replicate 1": 5.34e5, "Renilla control light, replicate 2": 3.48e5, "call": "inactive"}
{"predicted target": "CG9813", "DRSC id": "DRSC26207", "firefly reporter light, replicate 1": 3.03e5, "firefly reporter light, replicate 2": 2.11e5, "Renilla control light, replicate 1": 5.26e5, "Renilla control light, replicate 2": 4.36e5, "call": "inactive"}
{"predicted target": "grk", "DRSC id": "DRSC03540", "firefly reporter light, replicate 1": 5.31e5, "firefly reporter light, replicate 2": 7.97e5, "Renilla control light, replicate 1": 1.97e6, "Renilla control light, replicate 2": 1.80e6, "call": "inactive"}
{"predicted target": "lectin-37Da", "DRSC id": "DRSC03278", "firefly reporter light, replicate 1": 3.33e5, "firefly reporter light, replicate 2": 3.41e5, "Renilla control light, replicate 1": 3.20e6, "Renilla control light, replicate 2": 3.23e6, "call": "inactive"}
{"predicted target": "lectin-37Da", "DRSC id": "DRSC22729", "firefly reporter light, replicate 1": 9.28e5, "firefly reporter light, replicate 2": 7.68e5, "Renilla control light, replicate 1": 1.23e6, "Renilla control light, replicate 2": 9.21e5, "call": "inactive"}
{"predicted target": "rdgB", "DRSC id": "DRSC20365", "firefly reporter light, replicate 1": 2.87e5, "firefly reporter light, replicate 2": 1.89e5, "Renilla control light, replicate 1": 2.31e6, "Renilla control light, replicate 2": 3.07e6, "call": "inactive"}
{"predicted target": "rdgB", "DRSC id": "DRSC27840", "firefly reporter light, replicate 1": 4.41e5, "firefly reporter light, replicate 2": 4.27e5, "Renilla control light, replicate 1": 6.14e5, "Renilla control light, replicate 2": 7.71e5, "call": "inactive"}

A few values from above.
Entry of rdgB [DRSC20365] in “call”: inactive
For “firefly reporter light, replicate 1”, lectin-37Da [DRSC03278] is entered as 3.33e5
